The record followed here is publication PMC12040169 (PLOS Biology, 2025).

Some of the results follow.

This assay deals with T1, CTL2-GFP (C. trachomatis L2/434/Bu, GFP-expressing).
T1 construct: L2/434/Bu, GFP-expressing
The arrangement: species or system HeLa; Intracellular C. trachomatis growth in HeLa cells, bulk GFP fluorescence relative to DMSO. Particulars: bulk GFP, single well; 28.5 h, 10 µM; inhibitor.
With `Cn1cc(C(=O)NCC(c2ccccc2F)N2CCCC2)ccc1=O` (centres unmarked) [CBK281950], the “% of control remaining” value worked out at 161.866%.

For `COCc1ccc(C(=O)N2CCN3C(=O)CCC32C)o1` (centres unmarked) [CBK282091], the “% of control remaining” value is on record as 123.74%.

In the case of `CN1CCN(C(=O)CSc2nc(-c3cccs3)cc(C(F)(F)F)n2)CC1` [CBK307372], the “% of control remaining” value is given as 196.304%.

Regarding `Nc1ccc(-c2cncc(NCc3ccccc3)n2)cc1` [CBK065578], the “% of control remaining” value came to 88.2392%.

As for `CN(C)S(=O)(=O)N1CCC(Cc2ccccc2)CC1` [CBK263768], the “% of control remaining” value turned out to be 100.041%.

Regarding `CN(C)CCCNc1c(N)c(=O)oc2ccccc12` [CBK261468], the “% of control remaining” value amounted to 98.3471%.

For `Cc1cc(C)n(C2CCN(Cc3cn(C)c4cc(F)ccc34)CC2)n1` [CBK281806], the “% of control remaining” value turned out to be 136.17%.

For the molecule `Cc1cccn2c(CN3CCCOCC3)c(C(=O)N3CCOCC3)nc12` [CBK307144], the “% of control remaining” value worked out at 105.78%.

On to `COc1ccc2c(-c3cc(N)sn3)c(C)oc2c1` [CBK022260], for which the “% of control remaining” value turned out to be 139.173%.

Consider `O=C(O)c1cccc(-n2cc(-c3cccc(C(F)(F)F)c3)nn2)c1` [CBK112949], for which the “% of control remaining” value turned out to be 211.458%.

As for `CN(C(=O)c1cccs1)c1ccc(Oc2ncc(C(F)(F)F)cc2Cl)cc1` [CBK161654], the “% of control remaining” value is recorded as 69.6673%.

Consider `O=C1CCC(=O)N1CCOc1nccnc1N1CCN(CCc2ccccn2)CC1` [CBK084309], for which the “% of control remaining” value came out at 103.31%.

Consider `CC(C)OC(=O)CSc1nnc(-c2cnccn2)n1Cc1ccco1` [CBK267586], for which the “% of control remaining” value is 100.738%.

Consider `Cc1cc(NC(=O)CSc2ccc3nnc(-c4ccccc4)n3n2)no1` [CBK287518], for which the “% of control remaining” value stood at 114.217%.

Regarding `O=C1NC(=O)c2cc(S(=O)(=O)NCCCO)cc3cccc1c23` [CBK267602], the “% of control remaining” value is 97.4344%.

For `Cc1csc2ncc(C(=O)Nc3cc(C(F)(F)F)ccc3Cl)c(=O)n12` [CBK287465], the “% of control remaining” value worked out at 142.482%.

`Cc1cc(NC(=O)Cc2ccsc2)c2ccccc2n1` [CBK116259]: the “% of control remaining” value turned out to be 103.335%.

Regarding `CC(=O)NCCC1CCN(c2nc(C(C)(C)C)nc3c2cnn3C)CC1` [CBK307364], the “% of control remaining” value is 129.821%.

As for `OC(CN1CCC(Oc2ccccc2F)CC1)c1cccs1` (centres unmarked) [CBK281433], the “% of control remaining” value is recorded as 119.349%.

Take `COCCN1CC[C@@H]2[C@@H](C/C=C/Cc3ccccc3OCC(=O)N2C)C1` [CBK292134]: the “% of control remaining” value is 110.831%.

Turning to `CN1CCN(c2ccc3ccn(S(=O)(=O)c4ccc([N+](=O)[O-])cc4)c3n2)CC1` [CBK070757C], the “% of control remaining” value turned out to be 22.0294%.

Turning to `CC(=O)N[C@H]1CC[C@]2(C)CCC([C@H](C)C(=O)N3CCCCC3)[C@H](O)[C@H]2[C@@H]1C` (some centres unmarked) [CBK289439], the “% of control remaining” value was found to be 171.399%.

Consider `Oc1cccc(/C=N/n2c(S)nnc2-c2ccncc2)c1` [CBK265300], for which the “% of control remaining” value is recorded as 116.638%.

For `CS(=O)(=O)Nc1nnc(C(F)(F)F)s1` [CBK038168], the “% of control remaining” value worked out at 109.184%.

In the case of `COc1ccc(CSc2nnc(SCc3ccc(C(=O)O)cc3)s2)cc1` [CBK300477], the “% of control remaining” value was found to be 108.965%.

As to `C#CCNC(=O)CC[C@H]1CNC(=O)[C@@H]2[C@@H](CCN2CC(C)(C)C)N1C` [CBK289035], the “% of control remaining” value is 161.577%.

For `CC1CCN(S(=O)(=O)c2ccc(C(=O)N3CCCCC3C(=O)O)cc2)CC1` (centres unmarked) [CBK297094], the “% of control remaining” value is given as 130.487%.

On to `CCOC(=O)C1CCN(C(=O)c2ccc(OC)cc2)CC1` [CBK074220], for which the “% of control remaining” value was determined as 128.311%.

For `C=C(C)Cn1c(SCC(=O)O)nnc1-c1ccccc1` [CBK262737], the “% of control remaining” value was 100%.

In the case of `O=C1CC(SCCc2nc3ccccc3[nH]2)C(=O)N1c1ccc(F)cc1` (centres unmarked) [CBK267500], the “% of control remaining” value was 154.5%.

For the molecule `Cc1ccc2[nH]c(/C(C#N)=C\c3cn(CC(=O)Nc4ccccc4)c4ccccc34)nc2c1` [CBK267612], the “% of control remaining” value came out at 110.285%.

As for `Cc1cc(Cl)c(S(=O)(=O)Nc2ccc3c(c2)OCCO3)cc1OCC(=O)NC1CCCCC1` [CBK266786], the “% of control remaining” value is reported as 146.874%.

Regarding `COc1ccc(S(=O)(=O)Nc2nnc(C)s2)cc1` [CBK045543], the “% of control remaining” value is 118.971%.

For the molecule `CCCc1ccc(N(C)C(=O)c2ccc(OC(F)(F)F)cc2)cc1` [CBK161616], the “% of control remaining” value is recorded as 120.171%.

With `O=C(O)C1(Oc2ccc3ncccc3c2)CCN(C2CCCCC2)CC1` [CBK306591], the “% of control remaining” value was 148.185%.

As for `O=C(Cn1ncc2cccn2c1=O)Nc1cccc(F)c1` [CBK283702], the “% of control remaining” value is reported as 141.708%.

Take `Cc1cccc(-c2nnc(-c3cccc(NC(=O)COc4ccccc4)c3)o2)c1` [CBK269659]: the “% of control remaining” value was 121.049%.

Take `Cc1ccc(CN2Cc3cc4ccccc4nc3OC(C)C2=O)o1` (centres unmarked) [CBK284004]: the “% of control remaining” value was found to be 96.6598%.

As for `Cc1cc(C(=O)O)ccc1NC(=O)CCCC(=O)O` [CBK267917], the “% of control remaining” value turned out to be 129.456%.

For the molecule `CCOC(=O)C1(Cc2ccccc2-c2ccncc2)CCNCC1` [CBK282297], the “% of control remaining” value is given as 137.627%.

Consider `CCCCN(CC(F)(F)F)C(=O)Cc1csc(NC(=O)C(C)C)n1` [CBK306217], for which the “% of control remaining” value stood at 151.622%.

For the molecule `O=C(O)c1ccccc1-c1ccccc1C(=O)NCCc1ccccc1` [CBK263394], the “% of control remaining” value was 126.562%.

Take `CCC(=O)N1c2ccc(C(O)CN3CCSCC3)cc2CC1C` (centres unmarked) [CBK283122]: the “% of control remaining” value is 125.62%.

Turning to `O=C(Nc1ccccc1Cl)c1ccc(NCCN2C(=O)c3ccccc3C2=O)c([N+](=O)[O-])c1` [CBK267149], the “% of control remaining” value is 163.614%.

On to `Cn1c(=O)c2c(ncn2CCOc2cnc(-c3cnn(Cc4ccccc4)c3)c(N)n2)n(C)c1=O` [CBK145193], for which the “% of control remaining” value amounted to 110.864%.

Take `CCCNc1nccnc1-c1cc(C)c(O)c(C)c1` [CBK037210]: the “% of control remaining” value stood at 170.031%.

In the case of `O=C(O)c1ccc(NS(=O)(=O)c2ccc(NC(=O)c3ccccc3Cl)cc2)cc1` [CBK265184], the “% of control remaining” value was found to be 105.819%.

As for `C=CCSC1=N/C(=C\c2ccc(C(=O)O)cc2)C(=O)S1` [CBK265057], the “% of control remaining” value is 115.855%.

In the case of `C=CCNc1nccnc1-c1ccncc1` [CBK036845], the “% of control remaining” value came to 127.701%.

Regarding `Cn1cc(-c2nc(C3COCCN3C(=O)c3cccc(Cl)c3)no2)cn1` (centres unmarked) [CBK305443], the “% of control remaining” value amounted to 138.151%.

As to `CN(Cc1nc(-c2ccccc2)no1)C(=O)C1CCOC1` (centres unmarked) [CBK306755], the “% of control remaining” value worked out at 132.24%.

`Cc1ccc(S(=O)(=O)c2cc3c(=O)n4ccccc4nc3n(CCN3CCOCC3)c2=N)cc1` [CBK265637]: the “% of control remaining” value was 117.599%.

In the case of `O=C(Cc1c[nH]cn1)Nc1cccc2cc[nH]c12` [CBK160097], the “% of control remaining” value was found to be 116.513%.

Turning to `O=C(OCCC1SC(NC2CC3C=CC2C3)=NC1=O)c1cc(C(F)(F)F)cc(C(F)(F)F)c1` (centres unmarked) [CBK056857T], the “% of control remaining” value worked out at 123.955%.

Consider `COc1ccc(-n2cnnn2)cc1` [CBK001946], for which the “% of control remaining” value amounted to 122.832%.

On to `NC(=O)NS(=O)(=O)c1ccc(NC(=S)NC(=O)c2ccco2)cc1` [CBK261068], for which the “% of control remaining” value is on record as 99.5869%.

As to `CC(C)c1ccc(/C=C/C(=O)NC2CC2)cc1` [CBK149640], the “% of control remaining” value is reported as 54.7098%.

On to `O=C(NCCSCc1ccc(Cl)cc1Cl)c1ccc(Br)cc1` [CBK264733], for which the “% of control remaining” value is on record as 90.3202%.

As for `Cc1c(C(C)NCC(O)COc2ccc(C#N)cc2)cnn1C` (centres unmarked) [CBK304881], the “% of control remaining” value was found to be 153.254%.

Take `CCC1(CC)OC(NC23CC4CC(CC(O)(C4)C2)C3)=NC1=O` [CBK107938]: the “% of control remaining” value turned out to be 99.6617%.

With `O=C(Nc1ccccc1[N+](=O)[O-])c1cc(S(=O)(=O)Nc2ccccn2)ccc1Cl` [CBK263229], the “% of control remaining” value came to 94.0101%.

On to `Cc1nc2c(C(=O)N3CCNC(=O)C3)cnn2c(C)c1Cc1ccccc1` [CBK162197], for which the “% of control remaining” value is recorded as 121.978%.

Turning to `Cc1nc(C(=O)N(CCO)Cc2ccccc2)cs1` [CBK304810], the “% of control remaining” value came out at 87.0237%.

On to `NC1=NC(=O)C(CC(=O)Nc2ccccc2Cl)S1` (centres unmarked) [CBK039145], for which the “% of control remaining” value amounted to 124.969%.

As for `COc1ccc(C(C)C)cc1-c1cn2ccnc2c(N2CCN(c3ccncc3)CC2)n1` [CBK066217], the “% of control remaining” value stood at 0%.

With `COc1ccc2c(c1)cc(C(=O)NCc1cncn1CC(C)C)n2C` [CBK307193], the “% of control remaining” value was 117.175%.

For the molecule `COc1ccccc1-c1nccnc1OCCn1cnc2c1c(=O)n(C)c(=O)n2C` [CBK106816], the “% of control remaining” value came to 89.2515%.

Take `CS(=O)(=O)N/N=C/c1cccc(Br)c1` [CBK026427]: the “% of control remaining” value is 131.482%.

Take `O=C(NC(=O)N1CCOCC1)c1csnn1` [CBK005561]: the “% of control remaining” value is given as 119.866%.

For the molecule `Cc1ccncc1C(=O)N1CCc2ccccc21` [CBK200400], the “% of control remaining” value is 111.151%.

As for `Cc1ccc(/C=C/C(=O)O)cc1S(=O)(=O)NC1CCS(=O)(=O)C1` (centres unmarked) [CBK264409], the “% of control remaining” value was 134.911%.

In the case of `COc1ccc(C2NC(C(=O)O)CS2)c(OC)c1` (centres unmarked) [CBK260908], the “% of control remaining” value came to 99.4971%.

Consider `COc1ccccc1CNCC1CCN(C(=O)OC(C)(C)C)CC1` [CBK056710], for which the “% of control remaining” value is listed as 141.241%.

For the molecule `Cc1noc(C)c1CN1CCN(CC(CC(=O)Nc2ccc(F)cc2)C(=O)O)CC1` (centres unmarked) [CBK286821], the “% of control remaining” value was 137.782%.

As for `CS(=O)(=O)NC1CCCN(Cc2nc(N)c3ccccc3n2)C1` (centres unmarked) [CBK304889], the “% of control remaining” value is recorded as 105.196%.

For `COCCN(C(=O)c1cc2cc(C)ccc2s1)C1CCS(=O)(=O)C1` (centres unmarked) [CBK304289], the “% of control remaining” value was 103.861%.

For `Cc1ccc(N2C(=O)N[C@@H]3CCN(S(=O)(=O)c4ccccc4)[C@@H]3C2=O)cc1` [CBK289285], the “% of control remaining” value stood at 100.302%.

On to `C=CCn1c(Cc2csc(NC(=O)c3ccc(OC)cc3O)n2)n[nH]c1=S` [CBK296752], for which the “% of control remaining” value worked out at 131.443%.

As for `Cc1nnc(SCC2=NN(c3nc4ccccc4[nH]3)C(=O)C2)s1` [CBK293979], the “% of control remaining” value stood at 120.993%.

Consider `Cc1cccc(-n2c(C3CCCNC3=O)n[nH]c2=S)c1` (centres unmarked) [CBK012842], for which the “% of control remaining” value turned out to be 118.653%.
